Measurements taken from paper PMC8767196.
No constants are given. Whether binding was seen depends on the method and setting. Binding seen in cells or lysates may run through a third protein. Some results given as binding are weak or reduced against the parent protein; the word gives no strength. For some of these results: Sequences can lack the tags named with a protein.

Protein sequences, listed by entry. Tags and fused reporters are not part of them.
UniProt Q8IXI2: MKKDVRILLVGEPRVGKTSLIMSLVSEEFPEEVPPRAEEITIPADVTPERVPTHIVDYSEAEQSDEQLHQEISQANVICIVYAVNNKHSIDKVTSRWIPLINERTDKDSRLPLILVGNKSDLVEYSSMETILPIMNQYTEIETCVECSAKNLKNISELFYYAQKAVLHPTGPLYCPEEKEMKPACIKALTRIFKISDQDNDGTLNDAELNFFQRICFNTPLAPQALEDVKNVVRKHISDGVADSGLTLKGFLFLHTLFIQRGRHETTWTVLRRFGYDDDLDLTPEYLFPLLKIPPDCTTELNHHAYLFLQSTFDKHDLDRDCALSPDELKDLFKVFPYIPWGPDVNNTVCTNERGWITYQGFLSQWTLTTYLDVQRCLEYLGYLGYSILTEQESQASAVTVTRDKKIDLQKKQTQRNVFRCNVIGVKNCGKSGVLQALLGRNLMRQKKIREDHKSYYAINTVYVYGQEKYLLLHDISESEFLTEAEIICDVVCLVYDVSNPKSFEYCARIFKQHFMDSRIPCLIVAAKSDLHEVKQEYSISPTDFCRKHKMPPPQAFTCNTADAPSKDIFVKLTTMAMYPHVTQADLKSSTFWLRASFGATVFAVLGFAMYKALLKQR
UniProt Q9BXM7: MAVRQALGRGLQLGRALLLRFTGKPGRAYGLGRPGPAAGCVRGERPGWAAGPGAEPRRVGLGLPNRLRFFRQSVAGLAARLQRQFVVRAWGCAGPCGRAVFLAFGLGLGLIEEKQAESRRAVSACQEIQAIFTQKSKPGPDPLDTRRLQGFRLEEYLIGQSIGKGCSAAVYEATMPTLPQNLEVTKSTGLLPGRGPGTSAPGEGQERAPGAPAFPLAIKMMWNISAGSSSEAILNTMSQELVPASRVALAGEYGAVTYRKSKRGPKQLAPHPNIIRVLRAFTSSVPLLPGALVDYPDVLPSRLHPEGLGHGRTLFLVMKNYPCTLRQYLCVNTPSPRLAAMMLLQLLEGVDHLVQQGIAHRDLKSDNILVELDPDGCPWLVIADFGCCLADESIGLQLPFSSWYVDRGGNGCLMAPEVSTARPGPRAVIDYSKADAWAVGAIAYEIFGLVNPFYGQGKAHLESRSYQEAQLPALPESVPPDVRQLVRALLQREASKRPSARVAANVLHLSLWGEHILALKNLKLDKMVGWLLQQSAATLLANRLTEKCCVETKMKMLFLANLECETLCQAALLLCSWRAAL

Tests used:
[1] = target: Miro1 (human (endogenous in U2OS)) (UniProt Q8IXI2); experiment: proximity ligation; Duolink in situ PLA in fixed, permeabilised U2OS cells (WT or PINK1 KO) transfected with PINK1-3HA, 10 uM CCCP for 3 h; mouse anti-HA with rabbit anti-Mfn2, anti-Mfn1, anti-Miro1 or anti-VDAC; PLA spots per cell counted within the ER region of interest
[2] = target: T1, Mitofusin 2 (human (endogenous in U2OS)) (UniProt O95140); experiment: as above
T1 sequence: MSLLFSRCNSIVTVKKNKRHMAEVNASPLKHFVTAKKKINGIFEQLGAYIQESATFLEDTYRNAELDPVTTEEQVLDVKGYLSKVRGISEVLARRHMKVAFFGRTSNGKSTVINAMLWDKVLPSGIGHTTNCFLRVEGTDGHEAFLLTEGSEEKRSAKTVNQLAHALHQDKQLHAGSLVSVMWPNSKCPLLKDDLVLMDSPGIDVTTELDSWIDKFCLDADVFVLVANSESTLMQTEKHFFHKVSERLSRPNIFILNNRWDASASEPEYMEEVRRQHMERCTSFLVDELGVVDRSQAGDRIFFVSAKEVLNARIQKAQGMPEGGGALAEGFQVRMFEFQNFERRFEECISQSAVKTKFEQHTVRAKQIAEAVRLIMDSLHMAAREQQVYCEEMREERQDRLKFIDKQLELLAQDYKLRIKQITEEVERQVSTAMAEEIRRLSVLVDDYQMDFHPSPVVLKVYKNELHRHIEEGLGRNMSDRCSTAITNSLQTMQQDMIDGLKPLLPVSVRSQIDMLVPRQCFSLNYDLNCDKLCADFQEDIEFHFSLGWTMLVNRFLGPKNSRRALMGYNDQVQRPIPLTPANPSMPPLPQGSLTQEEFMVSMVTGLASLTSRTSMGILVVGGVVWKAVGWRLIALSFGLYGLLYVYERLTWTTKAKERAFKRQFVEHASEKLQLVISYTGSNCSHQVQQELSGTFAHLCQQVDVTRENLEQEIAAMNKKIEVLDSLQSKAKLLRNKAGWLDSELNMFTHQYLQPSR

[3] = target: T2, Mitofusin-1 (human (endogenous in U2OS)) (UniProt Q8IWA4); experiment: as above
T2 sequence: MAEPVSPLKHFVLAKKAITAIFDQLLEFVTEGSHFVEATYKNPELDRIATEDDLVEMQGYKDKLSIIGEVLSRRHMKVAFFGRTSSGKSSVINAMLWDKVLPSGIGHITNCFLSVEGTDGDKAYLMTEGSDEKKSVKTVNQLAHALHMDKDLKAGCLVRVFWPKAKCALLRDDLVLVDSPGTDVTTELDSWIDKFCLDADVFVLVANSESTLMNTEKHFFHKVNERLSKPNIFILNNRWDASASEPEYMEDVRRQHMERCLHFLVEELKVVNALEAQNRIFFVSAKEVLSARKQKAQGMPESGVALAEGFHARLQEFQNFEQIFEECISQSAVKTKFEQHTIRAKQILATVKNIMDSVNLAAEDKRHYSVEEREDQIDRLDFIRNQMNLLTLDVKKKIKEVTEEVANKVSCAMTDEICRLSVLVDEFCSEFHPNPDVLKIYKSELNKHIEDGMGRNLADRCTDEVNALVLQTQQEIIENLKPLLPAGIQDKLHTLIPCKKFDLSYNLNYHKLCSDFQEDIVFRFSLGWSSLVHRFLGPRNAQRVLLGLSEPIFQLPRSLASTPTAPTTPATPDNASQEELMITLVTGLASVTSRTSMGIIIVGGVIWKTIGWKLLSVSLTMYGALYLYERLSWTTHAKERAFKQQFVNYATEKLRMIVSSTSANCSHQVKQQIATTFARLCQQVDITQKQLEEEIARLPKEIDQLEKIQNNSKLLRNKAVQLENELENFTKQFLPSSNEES

[4] = target: T1, Mitofusin 2 (human (endogenous in U2OS)); experiment: condition: only without CCCP (no mitochondrial depolarization); proximity ligation; Duolink in situ PLA in fixed, permeabilised U2OS cells transfected with PINK1-3HA, without CCCP (DMSO); mouse anti-HA with rabbit anti-Mfn2

Substance: PINK1(WT)-3HA (from UniProt Q9BXM7 1-581) (enzyme)
- binding [1]: no binding
- binding [2]: binds
- binding [3]: no binding
- binding [4]: no binding
